According to patent publication US20240350634A1:

Target: CoaB coat protein of Pf4 bacteriophage (Pf4 bacteriophage)
Test: Western blot

| Binder | binding |
| --- | --- |
| IgG Ab #2 (2D4) (antibody, V domains shown) VH: EVQLQQSGTVLARPGASVKMSCKASGYSFTSYWMHWVKQRPGQGLEWIGAIYPGNSDTSYNQKFKGKAKLTAVTSASTAYMELSCLTNEDSAVFYCTRSQFYSGSSEDAMDYWGQGTSVTVSS VL: DVLMTQTPLSLPVSLGDQASISCRSSQSIVHSNGNTYLEWYLQKPGQSPKLLIYKVSNRFSGVPDRFSGSGSGTDFTLKISRVEAEDLGVYFCFQGSHVPWTFGGGTKLEIK | binds |
| IgG Ab #3 (3D6) (antibody, V domains shown) VH: QIQLVQSGPELKKPGETVKISCKASGYTFTNYGMNWLKQAPGKGLKWMGWINTNTGEPTYAEEFKGRFAFSLETSASTAYLQINNLKNEDTATYFCARKDYRYWFAYWGQGTLVTVSA VL: DVLMTQTPLSLPVSLGDQASISCRSSQSIVHSNGNTYLEWYLQKPGQSPKLLIYKVSNRFSGVPDRFSGSGSGTDFTLKISRVEAEDLGVYYCFQGSHVPFTFGSGTKLEIK | binds |

These are yes or no findings as the source states them, for the method shown. A result given as binding can be weak or reduced; the word gives no strength.
